Test results from patent US20240208984A1, “BIVALENT LIGANDS TO UNDERSTAND DIMERIZATION OF THE MU OPIOID RECEPTOR AND THE CHEMOKINE RECEPTOR CCR5 IN NEUROLOGICAL DISORDERS” (priority 2021, published 2024).

Tested on: HIV-1BaL Env-pseudotyped Luc-expressing virus
Assay: HIV-1 infection assay in PHA-stimulated PBMC cells
Format: cell-based
Conditions: PHA-stimulated PBMCs; 10 nM
Method: Peripheral blood mononuclear cells (PBMCs) include large numbers of CCR5-expressing leukocytes and are susceptible to infection by R5-tropic HIV-1 strains.
In a 24-well plate, PHA-stimulated PBMC cells from healthy donors were infected by incubation with the HIV-1BaL.01 env-pseudotyped Luc virus. A concentration of HIV-1 p24 50 pg/106 cells was used, and uninfected cells served as a negative control. […] After approximately 18-20 h, the supernatant was removed and stored at −80° C., cells were rinsed twice with PBS and lysed. The lysate was subsequently tested for the relative Tat protein expression by using a luciferase assay system (Promega). Luciferase activity was measured using a PHERASTAR® FS plate reader (BMG Labtech).

**Q.** `CN1CC[C@]23c4c5ccc(O)c4O[C@H]2[C@@H](O)C=C[C@H]3[C@H]1C5` [morphine, reference compound] was tested. Which “effect of opioid exposure on HIV expression” value did it give?
**A.** remarkable increases in HIV expression
